Assay results published in patent US20220098591.
No signal at the amounts used counts as a negative. The comparison behind a weaker result is the experiment's own reference, which may not be listed here. The exact form of at least one protein or probe is not confirmed. The direction of at least one scale is not stated here.

Chains of the proteins cited; added tags and fusions are not shown. A line that says so, or that is headed by a name, gives the form on record, which may keep a tag or linker.
UniProt P15692, other isoform, or with tags, fused parts or gaps: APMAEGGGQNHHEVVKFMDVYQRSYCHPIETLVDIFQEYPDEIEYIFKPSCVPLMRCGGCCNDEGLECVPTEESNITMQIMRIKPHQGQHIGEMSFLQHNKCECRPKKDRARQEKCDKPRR

Target: VEGF-A121 (Homo sapiens) (UniProt P15692)
Experiment: competition with a labelled probe
Conditions: 5' C6NH2, 3' idT, purified recombinant protein
[1] = all G 2'-F, A,C,U 2'-OMe, variant of Aptamer 26
[2] = 2'-F G except 2'-OMe G at 6,39,42 (Aptamer 141 numbering), 2'-OMe A,C,U, SP3 spacer between parts
[3] = 2'-F G except 2'-OMe G at 6,22,39,42 (Aptamer 141 numbering), 2'-OMe A,C,U, SP3 spacer between parts
[4] = 2'-F G except 2'-OMe G at 39 (Aptamer 141 numbering), 2'-OMe A,C,U, SP3 spacer between parts
[5] = 2'-F G except 2'-OMe G at 22,39 (Aptamer 141 numbering), 2'-OMe A,C,U, SP3 spacer between parts

“AGGCCGACCCGCGCGGAGGGGUUUCAUUAUCCCGUUUGUCGGCUU [Aptamer 191]”: binds more weakly (2'-F G except 2'-OMe G at 16, 2'-OMe A,C,U, SP3 spacer at 9 between parts).

“AGGCCGACCCGCGCGGAGGGGUUUCAUUAUCCCGUUUGUCGGCUU [Aptamer 188]”: binds (2'-F G except 2'-OMe G at 6, 2'-OMe A,C,U, SP3 spacer at 9 between parts).

“CCGACCCGCGCGGAGGGGUUUCAUUAUCCCGUUUGUCGGC [Aptamer 225]”: binds (2'-F G except 2'-OMe G at 6,39,42,43 (Aptamer 141 numbering), 2'-OMe A,C,U, SP3 spacer between parts).

“AGGCCGUUUCCGCGCGGAGGGGUUUCAUUAUCCCGUUUAACGGCUU [Aptamer 136]”: binds more weakly [1].

“CGACCCGCGCGGAGGGAUUACAUUAUCCCGUUUGUCG [Aptamer 288]”: binds [2].

“AGGCCGAUUCCGCGCGGAGGGGUUUCAUUAUCCCGUUUAUCGGCUU [Aptamer 134]”: binds more weakly [1].

In the case of “CGACCAGCGCUGAGGGGUUUCAUUAUCCCGUUUGUCG [Aptamer 293]”, the binding signal (fold worse than Aptamer 141) [3] is reported as 6.

“CCGACCCGCGCGGAGGGGUUUCAUUAUCCCGUUUGUCGGC [Aptamer 226]”: binds (2'-F G except 2'-OMe G at 22,39,42,43 (Aptamer 141 numbering), 2'-OMe A,C,U, SP3 spacer between parts).

“CGACCCGCGCGGAGGGAUCUCAUGAUCCCGUUUGUCG [Aptamer 297]”: binds (2'-F G except 2'-OMe G at 6,29,39,42 (Aptamer 141 numbering), 2'-OMe A,C,U, SP3 spacer between parts).

“AGGCCGCCUCCGCGCGGAGGACUUUCAUUAGUCCGUUUGGCGGCUU [Aptamer 128]”: binds more weakly [1].

“CGACCCGCGCGGAGGGGUUUCAUUAUCCCGUUUGUCG [Aptamer 233]”: binds (2'-F G except 2'-OMe G at 22,39,42 (Aptamer 141 numbering), 2'-OMe A,C,U, SP3 spacer between parts).

Work on “AGGCCGCCCCGCGCGGAGGGGUUUCAUUAUCCCGUUUGGCGGCUU [Aptamer 47]” yielded an IC50 (all G 2'-F, A,C,U 2'-OMe, Sp3 (1,3-propanediol) joins the two parts (position 9), AlphaLISA, blocks KDR binding, variant of Aptamer 26) of 3.6 nM.

“CGACCCGCGCGGAGGGAUAUCAUUAUCCCGUUUGUCG [Aptamer 287]”: binds [2].

“AGGCCGCCUGCGCGCGCAGGGGUUUCAUUAUCCCGUUUGGCGGCUU [Aptamer 174]”: binds more weakly [1].

“AGGCCGACCCGCGCGGAGGGGUUUCAUUACCCCGUUUGUCGGCUU [Aptamer 201]”: binds (2'-F G except 2'-OMe G at 6,22,39, 2'-OMe A,C,U, SP3 spacer at 9 between parts).

“CGACCCGCGCGGAGGGAUGUCAUCAUCCCGUUUGUCG [Aptamer 296]”: binds (2'-F G except 2'-OMe G at 6,24,39,42 (Aptamer 141 numbering), 2'-OMe A,C,U, SP3 spacer between parts).

“AGGCCGCCUCCUCGCGGAGGGGUUUCAUUAUCCCGUUUGGCGGCUU [Aptamer 151]”: binds more weakly [1].

“AGGCCGUAUCCGCGCGGAGGGGUUUCAUUAUCCCGUUUUACGGCUU [Aptamer 135]”: binds more weakly [1].

“AGGCCGACCCGCGCGGAGGGGUUUCAUUAUCCCGUUUGUCGGCUU [Aptamer 189]”: binds (2'-F G except 2'-OMe G at 12, 2'-OMe A,C,U, SP3 spacer at 9 between parts).

“AGGCCGGCUCCGCGCGGAGGGGUUUCAUUAUCCCGUUUGCCGGCUU [Aptamer 124]”: binds more weakly [1].

“CCGACCCGCGCGGAGGGGUUUCAUUAUCCCGUUUGUCGGC [Aptamer 224]”: binds (2'-F G except 2'-OMe G at 6,22,42,43 (Aptamer 141 numbering), 2'-OMe A,C,U, SP3 spacer between parts).

“AGGCCGCCUCCGCGCGGAGGGGUUUCAUUAUCCCGUUGGGCGGCUU [Aptamer 173]”: binds more weakly [1].

“CGACCCGCGCGGAGGGGUUACAUAAUCCCGUUUGUCG [Aptamer 292]”: binds [3].

Sequence “ACCCGCGCGGAGGGGUUUCAUUAUCCCGUUUGU [Aptamer 277]” has a binding signal (fold worse than Aptamer 141) [4] of over 100.

“CCGACCCGCGCGGAGGGGUUUCAUUAUCCCGUUUGUCGGC [Aptamer 221]”: binds (2'-F G except 2'-OMe G at 6,42,43 (Aptamer 141 numbering), 2'-OMe A,C,U, SP3 spacer between parts).

CGGAAUCAGUGAAUGCUUAUACAUCCG [Aptamer 7] was tested, and the “functional effect of the aptamer” value (2'-F C and U, 2'-OMe G and A except AA at positions 4-5, AlphaLISA, no inhibition of KDR binding, dose not given here) was “not active”.

“GACCCGCGCGGAGGGGUUUCAUUAUCCCGUUUGUC [Aptamer 240]”: binds [5].

In the case of “AGGCCGACCCGCGCGGAGGGGUUUCAUUAUCCCGUUUGUCGGCUU [Aptamer 197]”, the binding signal (fold worse than Aptamer 141) (2'-F G except 2'-OMe G at 35, 2'-OMe A,C,U, SP3 spacer at 9 between parts) is reported as over 100.

“CGACCCGCGCGGAGGGGUUUCAUUAUCCCGUUUGUCG [Aptamer 298]”: binds more weakly (2'-F G except 2'-OMe G at 6,22,39,42 (Aptamer 141 numbering), 2'-OMe A,C,U, two SP3 spacers between parts).

“CCGACCCGCGCGGAGGGGUUUCAUUAUCCCGUUUGUCGGC [Aptamer 222]”: binds (2'-F G except 2'-OMe G at 22,42,43 (Aptamer 141 numbering), 2'-OMe A,C,U, SP3 spacer between parts).

“AGGCCGCCUCCGCGCGGAGGGGUUUCAUUAUCCCGUUAGGCGGCUU [Aptamer 171]”: binds more weakly [1].

In the case of “CCCGCGCGGAGGGGUUUCAUUAUCCCGUUUG [Aptamer 281]”, the binding signal (fold worse than Aptamer 141) [5] is reported as over 100.

“AGGCCGCCUCCGCGCGGAGGGGUUUCAUUAUCCCGAUUGGCGGCUU [Aptamer 165]”: binds more weakly [1].

“AGGCCGCCUCCGGGCGGAGGGGUUUCAUUAUCCCGUUUGGCGGCUU [Aptamer 153]”: binds more weakly [1].

“AGGCCGCCUCCGCGCGGAGGGGUUUAUUAUCCCGUUUGGCGGCUU [Aptamer 64]”: binds more weakly (all G 2'-F, A,C,U 2'-OMe, Sp3 joins the two parts, variant of Aptamer 26).

“GCCGACCCGCGCGGAGGGGUUUCAUUAUCCCGUUUGUCGGC [Aptamer 215]”: binds (2'-F G except 2'-OMe G at 3,22,42,43 (Aptamer 141 numbering), 2'-OMe A,C,U, SP3 spacer between parts).

“AGGCCGCCCCGCGCGGAGGGGUUUCAUUAUCCCGUUUGGCGGCUU [Aptamer 79]”: binds more weakly [1].

Work on “CCCGCGCGGAGGGGUUUCAUUAUCCCGUUUG [Aptamer 280]” yielded a binding signal (fold worse than Aptamer 141) [4] of over 100.

With “AGGCCGACCCGCGCGGAGGGGUUUCAUUAUCCCGUUUGUCGGCUU [Aptamer 195]” the binding signal (fold worse than Aptamer 141) (2'-F G except 2'-OMe G at 21, 2'-OMe A,C,U, SP3 spacer at 9 between parts) was over 100.

“GACCCGCGCGGAGGGGUUUCAUUAUCCCGUUUGUC [Aptamer 235]”: binds (2'-F G except 2'-OMe G at 6 (Aptamer 141 numbering), 2'-OMe A,C,U, SP3 spacer between parts).

“AGGCCGAAUCCGCGCGGAGGGGUUUCAUUAUCCCGUUUUUCGGCUU [Aptamer 133]”: binds more weakly [1].

“CCGACCCGCGCGGAGGGGUUUCAUUAUCCCGUUUGUCGGC [Aptamer 227]”: binds (2'-F G except 2'-OMe G at 6,22,39,42,43 (Aptamer 141 numbering), 2'-OMe A,C,U, SP3 spacer between parts).

“GCCGACCCGCGCGGAGGGGUUUCAUUAUCCCGUUUGUCGGC [Aptamer 220]”: binds (2'-F G except 2'-OMe G at 3,6,22,39,42,43 (Aptamer 141 numbering), 2'-OMe A,C,U, SP3 spacer between parts).

“CGACCCGCGCGGAGGGGUUUCAUUAUCCCGUUUGUCG [Aptamer 294]”: binds (2'-F G except 2'-OMe G at 6,12,22,39,42 (Aptamer 141 numbering), 2'-OMe A,C,U, SP3 spacer between parts).

“GCCGACCCGCGCGGAGGGGUUUCAUUAUCCCGUUUGUCGGC [Aptamer 214]”: binds (2'-F G except 2'-OMe G at 3,6,42,43 (Aptamer 141 numbering), 2'-OMe A,C,U, SP3 spacer between parts).

“GCCGACCCGCGCGGAGGGGUUUCAUUAUCCCGUUUGUCGGC [Aptamer 216]”: binds (2'-F G except 2'-OMe G at 3,39,42,43 (Aptamer 141 numbering), 2'-OMe A,C,U, SP3 spacer between parts).

“AGGCCGCCUCCGCGCGGAGGGGUUCAUUACCCGUUUGGCGGCUU [Aptamer 109]”: binds more weakly [1].

“AGGCCGCCUUCGCGCGAAGGGGUUUCAUUAUCCCGUUUGGCGGCUU [Aptamer 176]”: binds more weakly [1].

“AGGCCGCCUCCGCGCGGAGGGGUUUCAUUAUCCCGUAUGGCGGCUU [Aptamer 168]”: binds more weakly [1].

“CGACCCGCGCGGAGGGGUUUCAUUAUCCCGUUUGUCG [Aptamer 229]”: binds (2'-F G except 2'-OMe G at 22,42 (Aptamer 141 numbering), 2'-OMe A,C,U, SP3 spacer between parts).

“GACCCGCGCGGAGGGGUUUCAUUAUCCCGUUUGUC [Aptamer 237]”: binds [4].
